This assay deals with SStau296-390 (human). The experiment in a line: immunoblot of transgenic mouse brain, interpretation. In general terms: Immunoblotting shows a protein as a band on a membrane.

Chains of the proteins cited; added tags and fusions are not shown. Lines headed by an entry give the natural chain unless they say otherwise; changes in a name come on top. A line that says so, or that is headed by a name, gives the form on record, which may keep a tag or linker.
endogenous mouse tau (P10637, form named): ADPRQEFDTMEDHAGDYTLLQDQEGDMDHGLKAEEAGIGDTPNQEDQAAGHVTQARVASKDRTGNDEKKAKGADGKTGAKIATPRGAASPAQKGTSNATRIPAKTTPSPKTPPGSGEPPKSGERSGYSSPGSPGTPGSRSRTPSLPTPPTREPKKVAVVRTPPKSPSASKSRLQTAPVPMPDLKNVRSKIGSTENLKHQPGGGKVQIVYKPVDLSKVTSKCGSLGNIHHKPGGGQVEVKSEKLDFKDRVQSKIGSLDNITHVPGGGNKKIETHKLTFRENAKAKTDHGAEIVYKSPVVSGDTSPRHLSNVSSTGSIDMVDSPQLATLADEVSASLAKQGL

The text below walks through data of patent publication US7834237.

Results are given in words; binding and its absence hold for the method and conditions named. Some entries that bind do so weakly or less than the wild type.

For “endogenous mouse tau (from UniProt P10637 2-341)”, the binding entry is reported as “binds”.
